PubChem BioAssay AID493014 (National Center for Advancing Translational Sciences (NCATS), 2011)
This is one part of the list. These are further read-outs of the screen, such as a control signal, another cell line or another target. No call is given for them. Compounds called inactive in the main read-out are mostly missing here. Words in brackets tell the shape of the fitted curve; partial curves, single points and poor fits give uncertain potencies.

Assay: qHTS Assay to Find Inhibitors of Chronic Active B-Cell Receptor Signaling
Conditions: ABC-DLBCL IkBa-CBG/CBR reporter, luminescence ratio (green luciferase fused to IkBa over red control in TMD8 lymphoma cells), 4 h
In short: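 TMD8 human ABC-DLBCL cells with doxycycline-inducible IκBα–green luciferase fusion and unfused red luciferase, in 0.5% FBS medium; compounds up to 46 uM, 4 h at 37C. Green/red luminescence ratio, filter-overlap corrected, fitted to concentration-response curves.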

[1] = measured here: CBR red luminescence, cell number
[2] = measured here: IkBa-CBG green luminescence

CCOC(=O)c1c(NC(=O)c2cc(-c3ccc(Cl)s3)nc3ccccc23)sc(C(N)=O)c1C
AC50 [1]: 2.31 µM [falling, partial curve, poor fit]

O=C(Nc1ccc(NC(=O)C2CC2)cc1)c1cccs1
AC50 [1]: 25.1 µM [falling, single point]

COc1cccc(N2C(=O)CC(c3c[nH]c4ccccc34)C2=O)c1 (centres undefined)
AC50 [1]: 0.411 µM [falling, full curve]

CCn1ncc([N+](=O)[O-])c1C(=O)N1CCCC1
AC50 [1]: 0.259 µM [falling, full curve, poor fit]

O=C1Nc2c(Br)cc(Br)cc2C1(O)N1CCOCC1 (centres undefined)
AC50 [1]: 31.6 µM [rising, single point]
AC50 [2]: 35.5 µM [falling, single point]

Cn1c(=O)c2c(ncn2CC(O)CO)n(C)c1=O (centres undefined)
AC50 [1]: 29.1 µM [rising, single point]

CC(Oc1ccccc1)C(=O)Nc1oc(-c2ccco2)c(-c2ccco2)c1C#N (centres undefined)
AC50 [1]: 0.82 µM [falling, partial curve, poor fit]

Cc1cccc(-n2cnc(C(=O)NNC(=S)Nc3ccc(Cl)cc3)c2)n1
AC50 [1]: 14.1 µM [rising, partial curve, poor fit]

COc1ccc(/C=C2\SC(=O)N(CCC(=O)NCCCn3ccnc3)C2=O)cc1
AC50 [1]: 7.08 µM [falling, partial curve, poor fit]

CCOC(=O)[C@H]1[C@H]2COc3ccc(Cl)cc3[C@@H]2N2C(=O)c3cc(Cl)ccc3NC(=O)[C@@]12C
AC50 [1]: 23.1 µM [falling, single point]
AC50 [2]: 23.1 µM [rising, partial curve, poor fit]

COC(=O)c1sc(NC(=O)COc2cccc(C)c2)nc1C
AC50 [1]: 1.16 µM [falling, full curve]

CCOC(=O)/C(=N\Nc1ccccc1Cl)N1CCN(Cc2ccccc2)CC1
AC50 [1]: 0.206 µM [falling, partial curve, poor fit]

Cc1c(-c2nc(N)nc(Nc3ccccc3)n2)oc2ccccc12
AC50 [1]: 10.3 µM [falling, partial curve]

c1ccc2[nH]c(CSc3ncnc4c3oc3ccccc34)nc2c1
AC50 [1]: 1.41 µM [rising, partial curve, poor fit]

Cc1cc(N2CCC(C)CC2)n2nc(C)c(-c3ccccc3)c2n1
AC50 [1]: 4.47 µM [rising, single point]

COc1cc(C=O)ccc1OCC(=O)N1CCCC1
AC50 [1]: 11.2 µM [rising, partial curve, poor fit]

CCC1CCCCN1CCCNC(=O)CS(=O)Cc1nc(-c2ccc(OC)c(OC)c2)oc1C (centres undefined)
AC50 [1]: 10 µM [falling, partial curve, poor fit]

CC(C)C(=O)Nc1ccccc1N1CCN(C(=O)c2ccccc2)CC1
AC50 [1]: 29.1 µM [rising, single point]

COc1ccc(-c2ccc(CNCc3ccccn3)o2)cc1Cl
AC50 [1]: 35.5 µM [rising, single point]

O=S(=O)(Cc1cc(-c2ccc(Cl)cc2)no1)c1ccccc1
AC50 [1]: 0.259 µM [rising, full curve, poor fit]

O=[N+]([O-])c1ccc(F)cc1OCc1nc(-c2cccs2)no1
AC50 [1]: 0.708 µM [rising, full curve, poor fit]

Cn1c(/C=C/c2ccccc2)nc2ccccc21
AC50 [1]: 14.1 µM [falling, single point]

Nc1ccccc1SC(C[N+](=O)[O-])c1ccccc1 (centres undefined)
AC50 [1]: 20 µM [rising, single point]
AC50 [2]: 20 µM [falling, single point]

CC(/C=N/NC(=O)c1ccccc1F)c1ccccc1 (centres undefined)
AC50 [1]: 7.94 µM [falling, partial curve]

CCC(C)C(=O)N1CCCC(c2nc(-c3cccs3)no2)C1 (centres undefined)
AC50 [1]: 18.4 µM [rising, partial curve, poor fit]

CN(Cc1ccccc1)C(=O)c1ccc(NC(=O)C2CCCN(C(=O)OC(C)(C)C)C2)cc1 (centres undefined)
AC50 [1]: 32.6 µM [falling, single point]

O=C(/C=C/c1ccccc1)NC(NC(=S)Nc1ccc(Cl)cc1)C(Cl)(Cl)Cl (centres undefined)
AC50 [1]: 14.1 µM [rising, single point]

O=C(Nc1ccc(CN2CCOCC2)cc1)c1cc2ccccc2o1
AC50 [1]: 29.1 µM [falling, single point]

CCN(CC(=O)Nc1ccccc1OC)C(=O)CN1C(=O)NC(C)(c2ccc(C)cc2)C1=O (centres undefined)
AC50 [1]: 0.164 µM [rising, full curve, poor fit]

O=C(Nc1ncccc1O)c1ccc2c(c1)OCCO2
AC50 [1]: 20.6 µM [falling, partial curve, poor fit]

CN(CC(=O)Nc1c(Cl)cccc1Cl)C(=O)c1sccc1-c1ccccc1
AC50 [1]: 1.64 µM [rising, single point]

CCC/S(CC1CC1(Cl)Cl)=N\S(=O)(=O)c1ccc(C)cc1 (centres undefined)
AC50 [1]: 29.1 µM [rising, single point]

COc1ccc(/C=N\NC(=O)c2ccccc2F)cc1COc1ccc(F)cc1F
AC50 [1]: 35.5 µM [falling, single point]
AC50 [2]: 5.01 µM [falling, full curve]

Cc1ccc(Cn2ccsc2=NC(=O)COC(=O)c2ccc(O)cc2O)cc1
AC50 [1]: 25.1 µM [falling, partial curve, poor fit]

CCOc1ccc(-c2nc(-c3cccnc3)no2)cc1
AC50 [1]: 1.03 µM [rising, full curve, poor fit]

O=C(NCc1cccnc1)C1CCN(Cc2cc3ccccc3n2Cc2cccc(Cl)c2)CC1
AC50 [1]: 25.1 µM [falling, single point]

Cc1cc2nc(C3CCCN(C(=S)Nc4ccccc4)C3)[nH]c2cc1C (centres undefined)
AC50 [1]: 1.78 µM [falling, full curve]

CC(=O)N(C(C)=O)c1c(C#N)c(C)n(-c2ccccc2)c1C(=O)c1ccccc1
AC50 [1]: 29.1 µM [falling, single point]

Cc1ccc(C(=O)N/N=C/c2ccc3c(c2)OCO3)o1
AC50 [1]: 7.31 µM [falling, partial curve]

CN(C)C(=O)N1CCN(C(=O)c2ccccc2Sc2ccccc2C#N)CC1
AC50 [1]: 6.51 µM [falling, single point]
